# Some of the results follow.
# Tests used:
# Assay in all cases: glycan array binding signal (z-score within array); higher = stronger binding
# Settings in all cases: glycan notation: IUPAC condensed, linker removed
# [1] = target: Kdn(a2-3)Gal(b1-4)Glc
# Outline: (§1)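 The binding signal is a Z-score computed within each array. Data were drawn from 3228 arrays in the Consortium for Functional Glycomics database, restricted to those with a known protein sequence. Scores were averaged over arrays of the same protein sequence at different concentrations or buffers, and over linkers, and negative values can be taken as non-binding.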
# [2] = target: Kdn(a2-3)Gal(b1-4)GlcNAc
# Outline: as §1
# [3] = target: Kdn(a2-3)Gal(b1-4)[Fuc(a1-3)]GlcNAc
# Outline: as §1
# [4] = target: Kdn(a2-6)Gal(b1-4)GlcNAc
# Outline: as §1
# [5] = target: Man(a1-2)Man(a1-2)Man(a1-3)Man
# Outline: as §1
# [6] = target: Man(a1-2)Man(a1-2)Man(a1-6)[Man(a1-3)]Man
# Outline: as §1
# [7] = target: Man(a1-2)Man(a1-3)Man
# Outline: as §1
# [8] = target: Man(a1-2)Man(a1-3)[Man(a1-2)Man(a1-6)]Man
# Outline: as §1
# [9] = target: Man(a1-2)Man(a1-3)[Man(a1-2)Man(a1-6)]Man(a1-6)[Man(a1-2)Man(a1-2)Man(a1-3)]Man
# Outline: as §1
# [10] = target: Man(a1-2)Man(a1-3)[Man(a1-2)Man(a1-6)]Man(a1-6)[Man(a1-2)Man(a1-2)Man(a1-3)]Man(b1-4)GlcNAc(b1-4)GlcNAc
# Outline: as §1
# [11] = target: Man(a1-2)Man(a1-3)[Man(a1-6)]Man(a1-6)[Man(a1-2)Man(a1-3)]Man(b1-4)GlcNAc(b1-4)GlcNAc
# Outline: as §1
# [12] = target: Man(a1-2)Man(a1-6)[Man(a1-3)]Man(a1-6)[Man(a1-2)Man(a1-2)Man(a1-3)]Man
# Outline: as §1
# [13] = target: Man(a1-2)Man(a1-6)[Man(a1-3)]Man(a1-6)[Man(a1-2)Man(a1-2)Man(a1-3)]Man(b1-4)GlcNAc(b1-4)GlcNAc
# Outline: as §1
# [14] = target: Man(a1-3)[Man(a1-6)]Man
# Outline: as §1
# [15] = target: Man(a1-3)[Man(a1-6)]Man(a1-6)[Man(a1-2)Man(a1-3)]Man(b1-4)GlcNAc(b1-4)GlcNAc
# Outline: as §1
# [16] = target: Man(a1-3)[Man(a1-6)]Man(a1-6)[Man(a1-3)]Man
# Outline: as §1
# [17] = target: Man(a1-3)[Man(a1-6)]Man(a1-6)[Man(a1-3)]Man(b1-4)GlcNAc(b1-4)GlcNAc
# Outline: as §1
# [18] = target: Man(a1-3)[Man(a1-6)]Man(b1-4)GlcNAc(b1-4)GlcNAc
# Outline: as §1
# [19] = target: Man(a1-3)[Man(a1-6)]Man(b1-4)GlcNAc(b1-4)[Fuc(a1-6)]GlcNAc
# Outline: as §1
# [20] = target: Man(a1-6)Man
# Outline: as §1
# [21] = target: Man(b1-4)GlcNAc
# Outline: as §1
# [22] = target: MurNAc(b1-4)GlcNAc
# Outline: as §1
# [23] = target: Neu5Ac(a2-3)Gal
# Outline: as §1
# [24] = target: Neu5Ac(a2-3)Gal(b1-3)GalNAc
# Outline: as §1
# [25] = target: Neu5Ac(a2-3)Gal(b1-3)GalNAc(b1-3)Gal(a1-4)Gal(b1-4)Glc
# Outline: as §1
# [26] = target: Neu5Ac(a2-3)Gal(b1-3)GalNAc(b1-4)[Neu5Ac(a2-3)]Gal(b1-4)Glc
# Outline: as §1
# [27] = target: Neu5Ac(a2-3)Gal(b1-3)GalNAc(b1-4)[Neu5Ac(a2-8)Neu5Ac(a2-3)]Gal(b1-4)Glc
# Outline: as §1
# [28] = target: Neu5Ac(a2-3)Gal(b1-3)GalNAc6S
# Outline: as §1
# [29] = target: Neu5Ac(a2-3)Gal(b1-3)GlcNAc
# Outline: as §1
# [30] = target: Neu5Ac(a2-3)Gal(b1-3)GlcNAc(b1-2)Man
# Outline: as §1
# [31] = target: Neu5Ac(a2-3)Gal(b1-3)GlcNAc(b1-2)Man(a1-3)[GlcNAc(b1-4)][Neu5Ac(a2-3)Gal(b1-3)GlcNAc(b1-2)Man(a1-6)]Man(b1-4)GlcNAc(b1-4)GlcNAc
# Outline: as §1
# [32] = target: Neu5Ac(a2-3)Gal(b1-3)GlcNAc(b1-2)Man(a1-3)[Neu5Ac(a2-3)Gal(b1-3)GlcNAc(b1-2)Man(a1-6)]Man(b1-4)GlcNAc(b1-4)GlcNAc
# Outline: as §1
# [33] = target: Neu5Ac(a2-3)Gal(b1-3)GlcNAc(b1-3)Gal(b1-3)GlcNAc
# Outline: as §1
# [34] = target: Neu5Ac(a2-3)Gal(b1-3)GlcNAc(b1-3)Gal(b1-4)GlcNAc
# Outline: as §1
# [35] = target: Neu5Ac(a2-3)Gal(b1-3)GlcNAc(b1-3)GalNAc
# Outline: as §1
# [36] = target: Neu5Ac(a2-3)Gal(b1-3)GlcNAc(b1-4)Gal(b1-4)Glc
# Outline: as §1
# [37] = target: Neu5Ac(a2-3)Gal(b1-3)GlcNAc(b1-6)GalNAc
# Outline: as §1
# [38] = target: Neu5Ac(a2-3)Gal(b1-3)GlcNAc6S
# Outline: as §1
binder,measurement,setting,value
"SfaEH (Escherichia coli), Q1RDG5 (protein) LLCRNNQTGQVFNSGDTSFRVNVSPVVQYDKSISVLDLSQLVSCQNEDSTGQNYDYLKILKGSGFSPALDTKTYGRLDFTSRPTGYARQLPLQFDLQVTEAFYQYGVWKPFPAKLYLYPAPGVFGKVINNGDLLATLYVNKFSTKGQEAGERNFTWRFYATNDVYIQTGTCRVSSNNVKVDLPSYPGGPVTVPLTVRCDQTQSVSYTLSGPVTGSGNTVFANTAASGSGGVGIQLSDNVGPVPAGQPRSLGQVGSSPVSLGLKASYALTGQASPTPGAVQSVINVTFSYN",glycan array binding signal (z-score),[1],-0.559
same,glycan array binding signal (z-score),[2],-0.902
same,glycan array binding signal (z-score),[3],-0.599
same,glycan array binding signal (z-score),[4],-0.724
same,glycan array binding signal (z-score),[5],-0.211
same,glycan array binding signal (z-score),[6],-0.615
same,glycan array binding signal (z-score),[7],-0.734
same,glycan array binding signal (z-score),[8],-0.74
same,glycan array binding signal (z-score),[9],0.008
same,glycan array binding signal (z-score),[10],-0.113
same,glycan array binding signal (z-score),[11],0.403
same,glycan array binding signal (z-score),[12],0.583
same,glycan array binding signal (z-score),[13],-0.865
same,glycan array binding signal (z-score),[14],-0.621
same,glycan array binding signal (z-score),[15],-0.789
same,glycan array binding signal (z-score),[16],-0.538
same,glycan array binding signal (z-score),[17],-0.969
same,glycan array binding signal (z-score),[18],0.076
same,glycan array binding signal (z-score),[19],-0.865
same,glycan array binding signal (z-score),[20],-0.795
same,glycan array binding signal (z-score),[21],-0.49
same,glycan array binding signal (z-score),[22],-0.594
same,glycan array binding signal (z-score),[23],-0.848
same,glycan array binding signal (z-score),[24],-0.661
same,glycan array binding signal (z-score),[25],0.281
same,glycan array binding signal (z-score),[26],-0.481
same,glycan array binding signal (z-score),[27],-0.396
same,glycan array binding signal (z-score),[28],-0.09
same,glycan array binding signal (z-score),[29],0.633
same,glycan array binding signal (z-score),[30],0.627
same,glycan array binding signal (z-score),[31],-1.23
same,glycan array binding signal (z-score),[32],-0.547
same,glycan array binding signal (z-score),[33],-0.355
same,glycan array binding signal (z-score),[34],1.06
same,glycan array binding signal (z-score),[35],0.084
same,glycan array binding signal (z-score),[36],-0.421
same,glycan array binding signal (z-score),[37],-0.614
same,glycan array binding signal (z-score),[38],-1.08

# Quoted from the results shown (9 entries):
binder,measurement,setting,value
"SfaEH (Escherichia coli), Q1RDG5 (protein) LLCRNNQTGQVFNSGDTSFRVNVSPVVQYDKSISVLDLSQLVSCQNEDSTGQNYDYLKILKGSGFSPALDTKTYGRLDFTSRPTGYARQLPLQFDLQVTEAFYQYGVWKPFPAKLYLYPAPGVFGKVINNGDLLATLYVNKFSTKGQEAGERNFTWRFYATNDVYIQTGTCRVSSNNVKVDLPSYPGGPVTVPLTVRCDQTQSVSYTLSGPVTGSGNTVFANTAASGSGGVGIQLSDNVGPVPAGQPRSLGQVGSSPVSLGLKASYALTGQASPTPGAVQSVINVTFSYN",glycan array binding signal (z-score),[18],0.076
same,glycan array binding signal (z-score),[19],-0.865
same,glycan array binding signal (z-score),[20],-0.795
same,glycan array binding signal (z-score),[21],-0.49
same,glycan array binding signal (z-score),[22],-0.594
same,glycan array binding signal (z-score),[23],-0.848
same,glycan array binding signal (z-score),[24],-0.661
same,glycan array binding signal (z-score),[25],0.281
same,glycan array binding signal (z-score),[26],-0.481

# Source: the supplement of paper PMC8728848
